Assay results as given in the supplement of paper PMC11006884.
This is a selection; strong and weak results do not stand in their true shares.

By UniProt entry, the sequences of proteins in these tests, tags left out. Where a name states a change or a piece, a line headed by the entry shows the natural chain unless it says otherwise.
UniProt Q7Z434: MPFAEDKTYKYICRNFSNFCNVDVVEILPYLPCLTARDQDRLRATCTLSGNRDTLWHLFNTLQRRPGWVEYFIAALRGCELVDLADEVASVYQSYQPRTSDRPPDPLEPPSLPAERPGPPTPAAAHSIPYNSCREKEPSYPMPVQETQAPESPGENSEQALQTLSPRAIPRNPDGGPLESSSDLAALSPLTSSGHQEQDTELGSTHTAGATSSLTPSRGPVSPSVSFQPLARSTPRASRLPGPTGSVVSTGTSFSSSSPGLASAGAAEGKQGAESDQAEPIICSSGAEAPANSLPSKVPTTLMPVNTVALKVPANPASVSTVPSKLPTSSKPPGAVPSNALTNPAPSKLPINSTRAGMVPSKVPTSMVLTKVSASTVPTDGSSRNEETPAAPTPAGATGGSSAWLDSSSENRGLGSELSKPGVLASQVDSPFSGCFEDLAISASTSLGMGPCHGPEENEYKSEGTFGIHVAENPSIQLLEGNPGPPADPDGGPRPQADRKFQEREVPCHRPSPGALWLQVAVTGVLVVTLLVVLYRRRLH
UniProt Q7Z5L9: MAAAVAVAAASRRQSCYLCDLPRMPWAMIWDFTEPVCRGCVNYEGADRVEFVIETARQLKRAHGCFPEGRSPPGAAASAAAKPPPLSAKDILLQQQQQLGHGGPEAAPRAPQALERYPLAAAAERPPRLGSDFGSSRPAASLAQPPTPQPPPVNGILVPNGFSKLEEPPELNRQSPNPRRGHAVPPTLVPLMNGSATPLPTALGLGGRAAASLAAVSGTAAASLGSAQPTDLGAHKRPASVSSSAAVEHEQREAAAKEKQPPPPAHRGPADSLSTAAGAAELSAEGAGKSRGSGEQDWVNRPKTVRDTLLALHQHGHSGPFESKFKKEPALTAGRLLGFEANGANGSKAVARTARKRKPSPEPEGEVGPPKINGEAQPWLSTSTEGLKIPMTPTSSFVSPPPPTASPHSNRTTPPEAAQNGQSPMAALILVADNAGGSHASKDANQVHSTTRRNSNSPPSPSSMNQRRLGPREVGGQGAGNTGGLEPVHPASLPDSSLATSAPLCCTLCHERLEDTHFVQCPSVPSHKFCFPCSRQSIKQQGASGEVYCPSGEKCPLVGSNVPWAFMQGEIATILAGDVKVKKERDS
UniProt Q8IWS0: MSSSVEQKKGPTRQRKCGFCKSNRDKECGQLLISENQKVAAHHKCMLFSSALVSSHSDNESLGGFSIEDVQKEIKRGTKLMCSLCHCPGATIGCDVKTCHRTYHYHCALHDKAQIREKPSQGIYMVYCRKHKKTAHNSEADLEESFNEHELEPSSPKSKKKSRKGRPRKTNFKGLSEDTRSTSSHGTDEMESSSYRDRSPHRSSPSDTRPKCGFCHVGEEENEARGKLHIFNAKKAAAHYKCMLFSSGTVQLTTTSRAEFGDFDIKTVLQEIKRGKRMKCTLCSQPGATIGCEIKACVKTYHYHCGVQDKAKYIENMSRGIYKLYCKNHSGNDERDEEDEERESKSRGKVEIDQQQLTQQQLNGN
UniProt Q86VP6: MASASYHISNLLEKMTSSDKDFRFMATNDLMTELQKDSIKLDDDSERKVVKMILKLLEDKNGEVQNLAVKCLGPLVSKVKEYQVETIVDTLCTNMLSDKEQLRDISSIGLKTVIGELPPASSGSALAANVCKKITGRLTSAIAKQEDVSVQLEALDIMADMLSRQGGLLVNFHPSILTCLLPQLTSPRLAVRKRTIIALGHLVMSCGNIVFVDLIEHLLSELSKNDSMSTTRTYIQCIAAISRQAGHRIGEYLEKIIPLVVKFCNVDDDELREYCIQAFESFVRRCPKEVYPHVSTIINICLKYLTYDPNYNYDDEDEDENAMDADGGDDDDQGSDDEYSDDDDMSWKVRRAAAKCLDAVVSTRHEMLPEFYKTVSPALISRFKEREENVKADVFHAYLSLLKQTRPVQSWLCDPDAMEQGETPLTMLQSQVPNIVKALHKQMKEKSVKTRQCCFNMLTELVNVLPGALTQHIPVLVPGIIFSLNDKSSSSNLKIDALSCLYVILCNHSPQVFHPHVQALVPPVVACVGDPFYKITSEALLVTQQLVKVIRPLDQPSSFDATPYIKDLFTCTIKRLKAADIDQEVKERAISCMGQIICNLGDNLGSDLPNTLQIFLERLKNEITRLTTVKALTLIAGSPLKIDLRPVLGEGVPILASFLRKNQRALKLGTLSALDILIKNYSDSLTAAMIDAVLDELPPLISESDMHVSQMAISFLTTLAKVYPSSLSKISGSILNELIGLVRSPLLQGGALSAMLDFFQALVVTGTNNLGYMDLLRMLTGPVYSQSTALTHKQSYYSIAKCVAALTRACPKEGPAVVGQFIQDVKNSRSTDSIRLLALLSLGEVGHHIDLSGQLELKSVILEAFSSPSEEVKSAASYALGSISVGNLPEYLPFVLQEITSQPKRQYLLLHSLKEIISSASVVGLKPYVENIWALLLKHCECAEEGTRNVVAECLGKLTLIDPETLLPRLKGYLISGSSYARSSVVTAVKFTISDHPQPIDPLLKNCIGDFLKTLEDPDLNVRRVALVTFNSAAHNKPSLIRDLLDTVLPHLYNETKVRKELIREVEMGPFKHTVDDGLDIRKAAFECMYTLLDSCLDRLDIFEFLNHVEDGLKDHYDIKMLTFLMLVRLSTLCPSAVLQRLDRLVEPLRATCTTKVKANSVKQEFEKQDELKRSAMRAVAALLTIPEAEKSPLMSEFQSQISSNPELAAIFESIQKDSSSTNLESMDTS
UniProt Q86SQ0: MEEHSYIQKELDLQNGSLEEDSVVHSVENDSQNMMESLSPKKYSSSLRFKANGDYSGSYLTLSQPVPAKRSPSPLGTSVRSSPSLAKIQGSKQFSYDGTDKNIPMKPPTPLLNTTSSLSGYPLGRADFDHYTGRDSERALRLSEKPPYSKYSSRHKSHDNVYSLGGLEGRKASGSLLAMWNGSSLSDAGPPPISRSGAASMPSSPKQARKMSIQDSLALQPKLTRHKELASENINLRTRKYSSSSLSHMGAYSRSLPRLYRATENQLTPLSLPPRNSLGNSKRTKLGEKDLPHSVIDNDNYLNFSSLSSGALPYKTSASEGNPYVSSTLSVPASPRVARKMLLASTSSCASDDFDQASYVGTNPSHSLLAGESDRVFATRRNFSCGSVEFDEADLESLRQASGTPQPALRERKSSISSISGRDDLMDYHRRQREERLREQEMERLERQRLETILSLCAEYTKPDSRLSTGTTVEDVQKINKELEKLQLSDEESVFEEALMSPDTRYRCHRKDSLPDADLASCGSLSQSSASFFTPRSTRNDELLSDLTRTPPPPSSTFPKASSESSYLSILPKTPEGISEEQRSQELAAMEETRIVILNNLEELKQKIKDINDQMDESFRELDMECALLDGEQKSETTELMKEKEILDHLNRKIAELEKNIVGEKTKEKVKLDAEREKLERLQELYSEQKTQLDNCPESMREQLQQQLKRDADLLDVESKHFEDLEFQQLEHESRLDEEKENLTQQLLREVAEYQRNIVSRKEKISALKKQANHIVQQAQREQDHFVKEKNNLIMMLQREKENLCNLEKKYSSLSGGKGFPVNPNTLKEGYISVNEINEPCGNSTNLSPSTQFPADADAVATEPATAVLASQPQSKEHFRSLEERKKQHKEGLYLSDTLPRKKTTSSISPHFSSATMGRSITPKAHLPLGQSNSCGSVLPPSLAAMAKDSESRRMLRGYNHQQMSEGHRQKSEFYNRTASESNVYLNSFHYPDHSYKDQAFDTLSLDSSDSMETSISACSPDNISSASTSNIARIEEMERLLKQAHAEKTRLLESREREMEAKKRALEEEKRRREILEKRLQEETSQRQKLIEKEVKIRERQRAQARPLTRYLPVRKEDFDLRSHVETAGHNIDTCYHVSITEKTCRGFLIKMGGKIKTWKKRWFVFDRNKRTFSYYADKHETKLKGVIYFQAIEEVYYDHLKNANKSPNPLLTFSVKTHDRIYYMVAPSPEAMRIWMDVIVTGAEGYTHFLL
UniProt Q7L8L6: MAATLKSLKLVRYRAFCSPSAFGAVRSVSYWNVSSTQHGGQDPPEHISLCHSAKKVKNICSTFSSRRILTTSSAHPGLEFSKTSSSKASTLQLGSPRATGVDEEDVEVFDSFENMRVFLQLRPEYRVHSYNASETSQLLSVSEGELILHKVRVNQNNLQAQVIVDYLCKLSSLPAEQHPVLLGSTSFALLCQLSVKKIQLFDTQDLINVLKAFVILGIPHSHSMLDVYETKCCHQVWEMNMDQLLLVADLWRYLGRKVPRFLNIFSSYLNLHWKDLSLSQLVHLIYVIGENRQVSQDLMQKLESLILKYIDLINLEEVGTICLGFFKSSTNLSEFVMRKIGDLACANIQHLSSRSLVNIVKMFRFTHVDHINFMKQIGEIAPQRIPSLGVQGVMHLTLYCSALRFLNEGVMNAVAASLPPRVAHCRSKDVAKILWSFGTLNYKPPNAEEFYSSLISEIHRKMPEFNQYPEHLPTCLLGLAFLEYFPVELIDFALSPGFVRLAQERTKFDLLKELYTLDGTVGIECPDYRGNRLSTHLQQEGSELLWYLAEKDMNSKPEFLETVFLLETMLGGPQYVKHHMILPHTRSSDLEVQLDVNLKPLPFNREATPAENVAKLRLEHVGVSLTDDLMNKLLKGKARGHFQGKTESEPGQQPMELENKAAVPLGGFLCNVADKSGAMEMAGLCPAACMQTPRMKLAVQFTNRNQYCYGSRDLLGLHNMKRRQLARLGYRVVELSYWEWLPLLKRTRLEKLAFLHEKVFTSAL
UniProt Q7RTV0, whole entry, looked up: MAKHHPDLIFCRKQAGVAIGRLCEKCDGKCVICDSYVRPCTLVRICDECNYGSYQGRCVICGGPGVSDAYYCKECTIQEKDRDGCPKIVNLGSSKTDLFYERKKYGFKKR
UniProt Q86UP2: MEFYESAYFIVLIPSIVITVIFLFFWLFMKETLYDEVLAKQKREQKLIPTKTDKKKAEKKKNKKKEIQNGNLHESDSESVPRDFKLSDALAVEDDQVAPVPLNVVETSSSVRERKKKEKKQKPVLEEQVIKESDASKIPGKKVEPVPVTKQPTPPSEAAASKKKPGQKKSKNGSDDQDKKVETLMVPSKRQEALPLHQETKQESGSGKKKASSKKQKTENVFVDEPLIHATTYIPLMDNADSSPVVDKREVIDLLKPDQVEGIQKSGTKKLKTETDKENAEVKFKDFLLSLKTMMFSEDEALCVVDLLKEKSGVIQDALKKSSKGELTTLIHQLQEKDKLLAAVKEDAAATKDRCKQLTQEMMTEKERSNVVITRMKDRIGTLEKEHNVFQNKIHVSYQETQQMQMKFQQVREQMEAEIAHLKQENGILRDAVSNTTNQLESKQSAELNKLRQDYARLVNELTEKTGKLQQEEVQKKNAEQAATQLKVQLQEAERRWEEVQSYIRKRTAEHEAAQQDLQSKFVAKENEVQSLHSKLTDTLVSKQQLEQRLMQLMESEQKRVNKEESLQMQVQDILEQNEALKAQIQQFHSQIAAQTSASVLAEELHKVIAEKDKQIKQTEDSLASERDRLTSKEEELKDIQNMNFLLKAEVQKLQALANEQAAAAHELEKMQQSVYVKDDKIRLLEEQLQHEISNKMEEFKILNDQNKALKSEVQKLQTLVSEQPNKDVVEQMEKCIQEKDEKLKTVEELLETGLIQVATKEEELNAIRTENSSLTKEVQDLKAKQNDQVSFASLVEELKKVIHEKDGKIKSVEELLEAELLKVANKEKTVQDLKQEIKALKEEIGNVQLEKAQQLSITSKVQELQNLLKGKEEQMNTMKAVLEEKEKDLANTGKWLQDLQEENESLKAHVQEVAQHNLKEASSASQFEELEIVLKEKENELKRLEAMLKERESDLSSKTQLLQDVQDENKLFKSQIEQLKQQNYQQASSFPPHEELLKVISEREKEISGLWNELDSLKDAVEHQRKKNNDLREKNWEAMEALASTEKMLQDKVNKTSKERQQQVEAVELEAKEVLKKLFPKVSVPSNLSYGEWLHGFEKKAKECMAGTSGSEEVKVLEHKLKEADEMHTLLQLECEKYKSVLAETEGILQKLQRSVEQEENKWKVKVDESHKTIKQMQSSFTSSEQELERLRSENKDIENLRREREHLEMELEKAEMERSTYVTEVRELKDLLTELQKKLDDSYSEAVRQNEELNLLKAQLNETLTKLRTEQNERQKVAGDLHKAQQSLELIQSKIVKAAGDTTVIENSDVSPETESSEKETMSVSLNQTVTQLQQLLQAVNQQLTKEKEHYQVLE
UniProt Q7L2H7, whole entry: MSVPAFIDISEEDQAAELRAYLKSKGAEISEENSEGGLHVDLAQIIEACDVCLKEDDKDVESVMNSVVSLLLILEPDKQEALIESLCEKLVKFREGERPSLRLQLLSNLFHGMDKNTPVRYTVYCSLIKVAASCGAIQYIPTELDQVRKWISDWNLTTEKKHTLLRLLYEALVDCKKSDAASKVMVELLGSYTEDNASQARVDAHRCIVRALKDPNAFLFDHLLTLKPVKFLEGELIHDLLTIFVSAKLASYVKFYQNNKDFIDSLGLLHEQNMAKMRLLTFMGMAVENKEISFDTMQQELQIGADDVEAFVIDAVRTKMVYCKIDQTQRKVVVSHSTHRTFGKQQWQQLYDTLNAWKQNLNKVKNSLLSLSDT

compound: COC(=O)C#Cc1ccccc1 [methyl 3-phenylpropiolate]; experiment: log2 ratio of iodoacetamide-alkyne labeling of the cysteine site, DMSO over compound (competition); higher = stronger covalent engagement of the cysteine by the compound, active = 1 or more; details: 500 µM; treatment time 1 h; system: HEK293T cell lysate
In short: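 After 1 h at ambient temperature with vehicle or electrophile (500 µM), HEK293T lysate (2 mg/mL) was labelled for 1 h with iodoacetamide alkyne and clicked to sCIP-TMT reagents. Pooled samples were trypsin-digested overnight at 37 °C, streptavidin-enriched, acid-eluted and analysed by Orbitrap Eclipse LC-MS/MS with FAIMS, then quantified in FragPipe over three replicates with duplicate channels. A cysteine's log2 competition ratio is its mean control-channel over mean compound-channel reporter intensity. Cysteines quantified in only one replicate were not included.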

log2 ratio of iodoacetamide-alkyne labeling, inactive:
WDFY1 C290 (UniProt Q8IWB7) -0.103, ZC3HAV1 C162 (UniProt Q7Z2W4) 0.082, UniProt Q7Z434_C46 -0.391, TMEM192 C266 (UniProt Q8IY95) 0.418, ZC3HAV1 C219 (UniProt Q7Z2W4) 0.305, IRF2BP2 C19 (UniProt Q7Z5L9) 0.113, PHF6 C28 (UniProt Q8IWS0) 0.287, PNPLA6 C409 (UniProt Q8IY17) 0.4, UniProt Q7LBC6_C569 0.877, CAND1 C275 (UniProt Q86VP6) -0.226, DHX30 C309 (UniProt Q7L2E3) 0.448, PHF6 C45 (UniProt Q8IWS0) 0.16, ZC3HC1 C502 (UniProt Q86WB0) 0.388, SND1 C826 (UniProt Q7KZF4) -0.12, PHLDB2 C385 (UniProt Q86SQ0) 0.605, UniProt Q7Z5K2_C964 0.46, FASTKD5 C525 (UniProt Q7L8L6) 0.511, PARG C397 (UniProt Q86W56) 0.64, UniProt Q7RTV0_C11 -0.0735, DHX30 C673 (UniProt Q7L2E3) -0.387, PARG C963 (UniProt Q86W56) 0.0715, KTN1 C1105 (UniProt Q86UP2) 0.28, CAND1 C1153 (UniProt Q86VP6) 0.443, UniProt Q7L2H7_C134 -0.134, ANKHD1 C777 (UniProt Q8IWZ3) 0.251, SLFN11 C126 (UniProt Q7Z7L1) 0.146, UniProt Q86Y56_C84 0.294, USP48 C658 (UniProt Q86UV5) 0.11, UniProt Q7Z2T5_C656 0.305, NCAPG2 C776 (UniProt Q86XI2) 0.824, ANKLE2 C367 (UniProt Q86XL3) 0.265, DCXR C150 (UniProt Q7Z4W1) -0.1, SND1 C96 (UniProt Q7KZF4) 0.115, PBRM1 C138 (UniProt Q86U86) 0.00396, GLRX5 C67 (UniProt Q86SX6) 0.0881, CAND1 C413 (UniProt Q86VP6) 0.304, UniProt Q86YR5_C497 0.463
